Source: publication doi:10.1101/508887
Results are given in words; binding and its absence hold for the method and conditions named. In cells and extracts the contact can be indirect. Some results given as binding are weak or reduced against the parent protein; the word gives no strength. For some of these results: Sequences can lack the tags named with a protein.

Protein sequences, listed by entry. Tags and fused reporters are not part of them. Lines headed by an entry give the natural chain unless they say otherwise; changes in a name come on top.
UniProt O43896, whole entry: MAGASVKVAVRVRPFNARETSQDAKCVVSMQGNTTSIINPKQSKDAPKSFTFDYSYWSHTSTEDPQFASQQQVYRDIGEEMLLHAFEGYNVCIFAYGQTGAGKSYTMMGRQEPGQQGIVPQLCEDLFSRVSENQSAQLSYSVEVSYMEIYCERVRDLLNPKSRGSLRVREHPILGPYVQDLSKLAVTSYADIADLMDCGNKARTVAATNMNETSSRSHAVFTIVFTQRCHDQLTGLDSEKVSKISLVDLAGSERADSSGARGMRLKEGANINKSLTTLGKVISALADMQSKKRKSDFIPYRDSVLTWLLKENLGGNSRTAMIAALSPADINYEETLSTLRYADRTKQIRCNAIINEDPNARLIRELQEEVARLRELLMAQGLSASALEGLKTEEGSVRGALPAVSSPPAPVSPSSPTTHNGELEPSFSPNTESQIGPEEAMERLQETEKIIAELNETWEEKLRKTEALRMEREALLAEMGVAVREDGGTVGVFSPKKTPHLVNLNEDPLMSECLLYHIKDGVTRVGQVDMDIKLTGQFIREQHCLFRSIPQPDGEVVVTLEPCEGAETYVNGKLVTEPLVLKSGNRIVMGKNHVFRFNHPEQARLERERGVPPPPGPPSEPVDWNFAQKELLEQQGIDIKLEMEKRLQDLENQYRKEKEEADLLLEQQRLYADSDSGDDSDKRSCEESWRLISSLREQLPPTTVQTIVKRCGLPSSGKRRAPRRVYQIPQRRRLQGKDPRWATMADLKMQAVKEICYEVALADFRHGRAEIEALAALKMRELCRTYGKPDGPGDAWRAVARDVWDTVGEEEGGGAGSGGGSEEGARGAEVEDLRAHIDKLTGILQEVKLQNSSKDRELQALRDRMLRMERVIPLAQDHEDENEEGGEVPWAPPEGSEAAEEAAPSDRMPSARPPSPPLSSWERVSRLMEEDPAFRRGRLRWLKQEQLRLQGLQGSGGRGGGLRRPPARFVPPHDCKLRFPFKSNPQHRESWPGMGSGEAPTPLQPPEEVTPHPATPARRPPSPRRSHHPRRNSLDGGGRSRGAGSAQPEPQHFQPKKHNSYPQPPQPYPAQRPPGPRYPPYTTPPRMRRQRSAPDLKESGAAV

Tests used:
[1] = molecular target: T1, FLAG-HA-HOOK3 (human) (UniProt Q86VS8); assay: co-IP + SEC
T1 sequence: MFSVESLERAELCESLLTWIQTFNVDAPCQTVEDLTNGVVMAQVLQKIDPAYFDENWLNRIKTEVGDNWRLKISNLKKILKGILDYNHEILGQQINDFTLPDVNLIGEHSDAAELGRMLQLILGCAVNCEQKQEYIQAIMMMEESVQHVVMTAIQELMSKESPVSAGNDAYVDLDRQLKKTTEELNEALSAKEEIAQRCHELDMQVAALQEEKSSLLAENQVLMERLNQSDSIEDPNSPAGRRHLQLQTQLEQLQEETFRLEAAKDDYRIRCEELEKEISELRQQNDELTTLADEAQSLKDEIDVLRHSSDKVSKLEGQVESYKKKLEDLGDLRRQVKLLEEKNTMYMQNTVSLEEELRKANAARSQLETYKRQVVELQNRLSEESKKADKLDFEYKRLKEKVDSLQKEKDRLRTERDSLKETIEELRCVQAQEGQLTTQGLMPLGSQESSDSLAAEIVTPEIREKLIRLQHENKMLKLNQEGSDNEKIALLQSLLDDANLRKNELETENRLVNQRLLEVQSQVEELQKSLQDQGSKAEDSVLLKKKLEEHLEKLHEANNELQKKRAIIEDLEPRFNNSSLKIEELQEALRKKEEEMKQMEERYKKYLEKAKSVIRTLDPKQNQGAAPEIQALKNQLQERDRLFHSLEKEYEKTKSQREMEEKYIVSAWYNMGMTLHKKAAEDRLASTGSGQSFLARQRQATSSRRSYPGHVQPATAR

[2] = molecular target: T2, Halo-HOOK3^1-552-3XFLAG (human) (UniProt Q86VS8); assay: co-IP
T2 sequence: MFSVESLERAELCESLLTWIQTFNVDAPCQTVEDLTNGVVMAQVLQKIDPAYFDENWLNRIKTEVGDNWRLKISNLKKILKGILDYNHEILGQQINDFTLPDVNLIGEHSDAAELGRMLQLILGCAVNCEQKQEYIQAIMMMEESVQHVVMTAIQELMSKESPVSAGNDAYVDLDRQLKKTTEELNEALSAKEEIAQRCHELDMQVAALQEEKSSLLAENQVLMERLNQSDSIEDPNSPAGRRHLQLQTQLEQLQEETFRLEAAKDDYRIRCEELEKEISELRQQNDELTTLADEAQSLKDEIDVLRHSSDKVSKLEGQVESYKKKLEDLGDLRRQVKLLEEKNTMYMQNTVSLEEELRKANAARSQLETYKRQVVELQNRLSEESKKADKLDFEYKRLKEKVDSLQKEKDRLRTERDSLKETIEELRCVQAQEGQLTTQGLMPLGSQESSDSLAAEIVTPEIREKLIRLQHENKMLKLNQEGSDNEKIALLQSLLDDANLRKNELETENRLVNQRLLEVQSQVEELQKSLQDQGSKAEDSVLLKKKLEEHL

[3] = molecular target: Halo-HOOK3^HOOK2-3XFLAG chimera (expressed in 293T) (human) (UniProt Q86VS8); assay: co-IP
[4] = molecular target: T3, Halo-HOOK3(1-718)-3XFLAG, full-length HOOK3 (human) (UniProt Q86VS8); assay: co-IP
T3 sequence (chain, Alexa-488 via the HaloTag (in the TIRF assays)): T1 sequence

[5] = molecular target: T4, Halo-HOOK3^553-718-3XFLAG (human) (UniProt Q86VS8); assay: co-IP
T4 sequence: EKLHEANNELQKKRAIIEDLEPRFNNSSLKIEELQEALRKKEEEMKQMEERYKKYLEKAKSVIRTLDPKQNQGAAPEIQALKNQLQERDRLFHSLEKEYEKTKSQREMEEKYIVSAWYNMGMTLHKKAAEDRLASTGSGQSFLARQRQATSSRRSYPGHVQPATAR

[6] = molecular target: T5, HOOK3 (endogenous) (human (endogenous in 293T)) (UniProt Q86VS8); assay: co-IP
T5 sequence: T1 sequence

[7] = molecular target: T6, HaloTag-HOOK2-3XFLAG (human) (UniProt Q96ED9); assay: co-IP
T6 sequence: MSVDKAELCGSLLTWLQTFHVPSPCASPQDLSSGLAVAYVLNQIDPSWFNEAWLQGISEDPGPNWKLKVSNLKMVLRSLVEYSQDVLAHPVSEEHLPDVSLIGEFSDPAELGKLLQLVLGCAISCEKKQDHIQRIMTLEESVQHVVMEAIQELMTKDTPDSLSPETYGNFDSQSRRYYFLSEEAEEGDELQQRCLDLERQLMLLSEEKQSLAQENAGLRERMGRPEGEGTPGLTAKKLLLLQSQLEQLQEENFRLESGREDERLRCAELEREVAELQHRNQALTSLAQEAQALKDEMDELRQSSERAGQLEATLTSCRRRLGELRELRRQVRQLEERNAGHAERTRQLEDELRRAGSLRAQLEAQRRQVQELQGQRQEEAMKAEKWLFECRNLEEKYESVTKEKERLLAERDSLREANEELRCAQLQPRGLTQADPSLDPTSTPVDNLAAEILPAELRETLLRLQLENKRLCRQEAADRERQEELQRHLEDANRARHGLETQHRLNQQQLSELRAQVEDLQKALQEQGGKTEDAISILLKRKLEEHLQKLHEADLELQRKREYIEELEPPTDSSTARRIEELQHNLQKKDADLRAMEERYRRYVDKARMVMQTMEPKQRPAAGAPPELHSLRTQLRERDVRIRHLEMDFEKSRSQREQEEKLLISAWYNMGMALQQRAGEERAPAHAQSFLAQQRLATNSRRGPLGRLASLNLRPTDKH

Measured: binding

KIF1C (endogenous) (from UniProt O43896 1-1103)
no binding: [2] | [3] | [7]
binds: all other assays above
